These are yes or no findings as the source states them, for the method shown.

Assay [1] concerns the target recombinant NanB (neuraminidase B of Streptococcus pneumoniae TIGR4) (Streptococcus pneumoniae TIGR4) (UniProt Q54727). The assay is described as follows: SEC-MALS; AdvanceBio SEC 300-Å column connected to a DAWN8 detector, 0.3 ml/min, PBS pH 7.2; both purified. In general terms: SEC sorts molecules by how far they enter the pores of the column.
Assay [2] has the same target. The assay is described as follows: SEC; AdvanceBio SEC 300-Å column, 1 ml/min, PBS pH 7.2 as mobile phase; elution of protein and of enzymatic activity compared with molecular weight standards; both purified.

B1: recombinant NanB (neuraminidase B of Streptococcus pneumoniae TIGR4) (enzyme, UniProt Q54727 30-697)
chain: NELNYGQLSISPIFQGGSYQLNNKSIDISSLLLDKLSGESQTVVMKFKADKPNSLQALFGLSNSKAGFKNNYFSIFMRDSGEIGVEIRDAQKGINYLFSRPASLWGKHKGQAVENTLVFVSDSKDKTYTMYVNGIEVFSETVDTFLPISNINGIDKATLGAVNREGKEHYLAKGSIDEISLFNKAISDQEVSTIPLSNPFQLIFQSGDSTQANYFRIPTLYTLSSGRVLSSIDARYGGTHDSKSKINIATSYSDDNGKTWSEPIFAMKFNDYEEQLVYWPRDNKLKNSQISGSASFIDSSIVEDKKSGKTILLADVMPAGIGNNNANKADSGFKEINGHYYLKLKKNGDNDFRYTVRENGVVYNETTNKPTNYTINDKYEVLEGGKSLTVEQYSVDFDSGSLRERHNGKQVPMNVFYKDSLFKVTPTNYIAMTTSQNRGESWEQFKLLPPFLGEKHNGTYLCPGQGLALKSSNRLIFATYTSGELTYLISDDSGQTWKKSSASIPFKNATAEAQMVELRDGVIRTFFRTTTGKIAYMTSRDSGETWSKVSYIDGIQQTSYGTQVSAIKYSQLIDGKEAVILSTPNSRSGRKGGQLVVGLVNKEDDSIDWKYHYDIDLPSYGYAYSAITELPNHHIGVLFEKYDSWSRNELHLSNVVQYIDLEINDLTK
With B1, the binding entry in assay [1] and in assay [2] was “no binding” throughout.

For the origin of these results see publication PMC9929470.
